In patent publication US20190291112A1, “DROPLET MICROFLUIDICS FOR DRUG SCREENING” (University of Macau, priority 2018, published 2019):

Tests used:
Format in all cases: cell-based
Jurkat cells [1] = experiment: 96-well microtiter plate drug screening assay (Alamar Blue); conditions: Homo sapiens, 96-well plate, 16-24 h
Experimental: (§1) Jurkat E6.1 cells (ATCC® TIB-152™) and MDA-MB-231 cells (ATCC® HTB-26™) were used as models for suspended and adherent cancer cell lines respectively. Jurkat cell line was derived from human acute T cell leukemia, whereas MDA-MB-231 cell line was derived from human metastatic breast adenocarcinoma.
(§2) Microtiter plate drug screening assays were carried out on 96-well clear round flat-bottom plates (Corning, USA) or 384-well white square flat-bottom plates (Corning, USA).
(§3) First, 5.0×10^5 or 1.0×10^5 cells were seeded per well for 96-well and 384-well plates respectively. Drugs were diluted with Dulbecco's phosphate-buffered saline (DPBS) (Life Technologies, USA), and subsequently added to achieve final drug concentrations as indicated on the graphs. Afterwards, the plates were transferred to humidified incubator at 37° C. supplemented with 5% CO2 for 16-24 h incubation. Finally, Alamar Blue assay was used to measure cell viability. Fluorescence intensity (Ex. 560 nm, Em. 590 nm) using auto-cutoff was measured from bottom on plate reader (Molecular Devices SpectraMax MS Plate Reader, USA). […]
(§4) For microliter plate assays, average relative fluorescence signal measured by plate reader from 6 reads of each well was used as raw data point. Cell viability was calculated as follows: […]

Jurkat cells [2] = experiment: 384-well microtiter plate drug screening assay (Alamar Blue); conditions: Homo sapiens, 384-well plate, 16-24 h
Experimental: as §1, §2, §3, §4

Jurkat cells [3] = experiment: On chip drug screening assay (ethidium homodimer 1 staining); conditions: Homo sapiens, 16-24 h
Experimental: Jurkat E6.1 cells (ATCC® TIB-152™) and MDA-MB-231 cells (ATCC® HTB-26™) were used as models for suspended and adherent cancer cell lines respectively. Jurkat cell line was derived from human acute T cell leukemia, whereas MDA-MB-231 cell line was derived from human metastatic breast adenocarcinoma. On chip drug screening was performed using the PDMS-based microfluidic chip as described above. A 500 μL glass syringe (Hamilton, USA) and polytetrafluoroethylene (PTFE) tubings with appropriate bore (Cole Parmer, USA) was used to connect between the syringe pump (Harvard Apparatus PHD Ultra Syringe Pump, USA) and the microfluidic chip. […] Brightfield and red fluorescence images (Ex. 531/40 nm, Em. 593/40 nm) were taken under 10× magnification (Life Technologies EVOS FL Imaging System, USA). For on chip assays, brightfield and red fluorescence images were initially processed by ImageJ v.1.50i, Cell counting was either performed manually or by Matlab v.R201.5a based on the workflow shown on FIG. 5B. Briefly, cells from brightfield and red fluorescence images were detected separately using a heuristic Hough Transformation model based on threshold implementation on circular diameter and pixel intensity. […] Afterwards, cells were distinguished from noise based on the brightfield image, whereas cell viability was determined by signal intensity of corresponding red fluorescence image. […]

Measured: IC50

O=C(CCCCCCC(=O)Nc1ccccc1)NO [vorinostat]
> 50 µM: all assays above
